Data source: PubChem BioAssay AID686943 (Drosophila RNAi Screening Center, 2013)
Screen: 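Knockdowns that increase or decrease active ERK after insulin receptor stimulation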 (primary screen). Cells: Drosophila S2R+ haemocyte-like cells expressing YFP-tagged ERK (Rolled). Reagent: long dsRNA against Drosophila genes. Conditions: insulin stimulation versus unstimulated cells; dose and duration not given. Detection: 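Antibody staining for doubly phosphorylated ERK divided by ERK-YFP signal, as plate z-scores, in insulin-treated and untreated cells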. Reading the numbers: replicate 1, z-score of dpERK with insulin and replicate 2, z-score of dpERK with insulin: higher = more active ERK per ERK-YFP after insulin; replicate 1, z-score of dpERK under basal conditions: higher = more basal active ERK per ERK-YFP; replicate 1, z-score of ERK-YFP with insulin: higher = more YFP-tagged ERK signal.
The deposit covers about 23,000 reagents; shown is an unselected part of those with a known target gene and a result. 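Extra replicates exist only for a retested subset of genes; insulin dose and duration not given; both raised and lowered dpERK matter.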 Names joined by + are all predicted targets of the reagent. Not given: the amount of reagent, the time to read-out.

| Gene | DRSC id | replicate 1, z-score of dpERK with insulin | replicate 2, z-score of dpERK with insulin | replicate 1, z-score of dpERK under basal conditions | replicate 1, z-score of ERK-YFP with insulin |
| --- | --- | --- | --- | --- | --- |
| Nepl12 | DRSC16411 | -0.32 | 0.3 | 0.19 | 0.46 |
| eEF5 | DRSC04681 | 1.24 | 1.9 | -1.49 | 0.5 |
| LSm7 | DRSC02251 | 1.71 | 0.75 | 0.07 | -0.23 |
| spag4 | DRSC02973 | 0.22 | -0.22 | -0.01 | 0.51 |
| CG4286 | DRSC04459 | -1.58 | 0.54 | 0.4 | 2.08 |
| Pen | DRSC03396 | 0.9 | -0.06 | -0.11 | 0.01 |
| Mi-2 + Su(Tpl) | DRSC09640 | 0.64 | 0.37 | 0.29 | -0.1 |
| Sec6 | DRSC06932 | -0.66 | -0.3 | -0.11 | 0.28 |
| Rhau | DRSC03200 | 1.29 | 0.16 | 2.19 | 0.82 |
| DCTN5-p25 | DRSC03525 | -0.1 | -0.55 | -0.41 | -0.1 |
| CG3719 | DRSC18493 | -0.67 | 1 | -1.17 | 0.88 |
| CG3565 | DRSC04389 | -0.11 | 0.33 | 0.2 | 0.2 |
| ATP7 | DRSC19819 | 0.53 | 0.38 | 1.56 | 1.01 |
| CG14454 | DRSC11711 | 0.15 | 2.36 | -0.39 | 1.68 |
| TTLL6A | DRSC06618 | 0.93 | 0.2 | 1.1 | 0.01 |
| MESR4 | DRSC06901 | -1.15 | -0.07 | -1.32 | 0.55 |
| if | DRSC20341 | -0.82 | -1.45 | -4.09 | 1.33 |
| CG15395 | DRSC00409 | 0.03 | 0.66 | -0.67 | -0.71 |
| chb | DRSC11469 | 0.82 | 2.03 | 1.95 | -0.35 |
| mRpS5 | DRSC21380 | -0.37 | 0.68 | 0.52 | -0.79 |
| Srp14 | DRSC15797 | -0.04 | -0.2 | 0.68 | 0.34 |
| Nsun5 | DRSC15835 | -0.25 | -0.06 | -0.61 | 0.11 |
| RpS4 | DRSC11272 | 1.13 | -1.68 | -1.83 | -3.82 |
| CG5235 | DRSC10494 | -0.86 | -0.4 | -0.31 | 0.93 |
| spag | DRSC04717 | -0.27 | 0.58 | -0.16 | 0.63 |
| CG32628 (retired record) | DRSC19405 | 1.05 | 0.3 | -1.6 | -0.83 |
| CG17754 | DRSC18131 | 0.77 | 0.3 | 0.05 | -0.24 |
| mod(mdg4) + pre-mod(mdg4)-Z + pre-mod(mdg4)-T | DRSC13477 | -1.47 | 0.91 | 0.29 | 0.51 |
| mod(mdg4) + pre-mod(mdg4)-Z + pre-mod(mdg4)-T | DRSC17001 | 0.34 | 0.88 | -0.04 | 0.11 |
| CG3808 | DRSC10377 | -0.49 | -1.09 | 0.63 | 0.75 |
| Ir84a | DRSC12510 | -0.28 | -0.08 | -0.66 | 0.04 |
| CG5002 | DRSC06911 | 0.34 | 0.01 | -1.55 | 0.15 |
| pds5 | DRSC06670 | 0.87 | 0.3 | 0.7 | 0.83 |
| Ada2b | DRSC16531 | 0.48 | 1.21 | -0.32 | 0.4 |
| ND-39 | DRSC11791 | 0.04 | 0.01 | 1.82 | 0.47 |
| CG1971 | DRSC15406 | 0.93 | 0.19 | 0.1 | 0.25 |
| Ddx1 | DRSC11862 | -0.43 | -0.21 | -0.17 | 0.06 |
| Cyp312a1 | DRSC11128 | -1.09 | -0.52 | 0.35 | 0.38 |
| Npc2b | DRSC15464 | -0.21 | 0.41 | 1.66 | -0.61 |
| Obp57c | DRSC06384 | 0.28 | -0.86 | -0.99 | 0.05 |
| CG14053 | DRSC17908 | -0.91 | -0.06 | 1.53 | 0.99 |
| STUB1 | DRSC03282 | -1.11 | -0.76 | -0.14 | -0.26 |
| CG13771 | DRSC02277 | -0.71 | -0.17 | -0.14 | 2.06 |
| aos | DRSC11323 | 0.04 | -0.1 | 1.32 | 0.24 |
| Rab30 | DRSC03137 | 0.82 | 0.02 | -0.55 | 0.02 |

In a second layout: results already given.
Gene,DRSC id,"replicate 1, z-score of dpERK with insulin","replicate 2, z-score of dpERK with insulin","replicate 1, z-score of dpERK under basal conditions","replicate 1, z-score of ERK-YFP with insulin"
Mi-2 + Su(Tpl),DRSC09640,0.64,0.37,0.29,-0.1
Sec6,DRSC06932,-0.66,-0.3,-0.11,0.28
Rhau,DRSC03200,1.29,0.16,2.19,0.82
DCTN5-p25,DRSC03525,-0.1,-0.55,-0.41,-0.1
CG3719,DRSC18493,-0.67,1,-1.17,0.88

The results go on.
| Gene | DRSC id | replicate 1, z-score of dpERK with insulin | replicate 2, z-score of dpERK with insulin | replicate 1, z-score of dpERK under basal conditions | replicate 1, z-score of ERK-YFP with insulin |
| --- | --- | --- | --- | --- | --- |
| CG31674 | DRSC03208 | 0.33 | -0.8 | 0.36 | -0.58 |
| CG14448 | DRSC11705 | -1.15 | -0.65 | 0.2 | 0.55 |
| SIFaR | DRSC13467 | -0.07 | 1.27 | -0.88 | -0.27 |
| SIFaR | DRSC14266 | 0.42 | -0.6 | 0.9 | -0.27 |
| CG12826 | DRSC06175 | -1.27 | -0.86 | -0.04 | 0.25 |
| Ugt49B2 | DRSC16049 | -0.35 | 0.17 | -0.03 | 0.12 |
| CG10222 | DRSC09714 | 0.73 | 0.01 | -1.54 | -0.01 |
| CG13843 | DRSC14693 | 0.78 | 0 | 0.22 | 1.6 |
| CG17104 | DRSC02573 | 0.5 | 0.8 | 0.43 | -0.65 |
| CG31253 + CG31131 | DRSC13839 | -0.34 | 0.97 | 0.66 | 0.22 |
| CG6709 + Hez | DRSC10165 | 0.87 | 0.06 | 0.21 | -0.02 |
| CG6709 + Hez | DRSC10698 | 0.64 | 0.46 | 0.24 | -0.23 |
| CG17261 | DRSC00498 | -0.79 | -0.67 | -0.24 | -0.99 |
| Sh3beta | DRSC11001 | 0.08 | -0.18 | -0.03 | 0.43 |
| Sh3beta | DRSC22053 | 0.2 | -0.03 | 0.8 | -0.41 |
| CG8620 | DRSC11020 | -0.29 | -0.27 | -0.69 | 1.01 |
| CG10154 | DRSC09707 | 0.17 | 0.3 | -0.7 | 0.4 |
| RpL37A | DRSC02899 | -1.74 | -1.97 | -3.71 | -3.14 |
| Rcd2 | DRSC11756 | -3.03 | -1.53 | 0.74 | -1.29 |
| CG31638 | DRSC02269 | -2.28 | -2.14 | 1.26 | 1.11 |
| CG31638 | DRSC03259 | 0.21 | -0.18 | 0.31 | 0.26 |
| Socs36E | DRSC02455 | -2.39 | -1.51 | 1.1 | -0.36 |
| Nap1 | DRSC04626 | 0.34 | 0.28 | 0.9 | 0.29 |
| CG6696 | DRSC20004 | -0.1 | -0.27 | 0.73 | 0.35 |
| fbp | DRSC02077 | -0.12 | 0.39 | 0.54 | 0.09 |
| CG5953 | DRSC01546 | -0.02 | -0.39 | 0.42 | 1.82 |
| CG5953 | DRSC02914 | -2.05 | -3.42 | -1.91 | 1.03 |
| Grl36a | DRSC21748 | 0.04 | -0.22 | 0.18 | 1.76 |
